The text below walks through data of PMC11681874.

This assay has as its target T1, RXRα (UniProt P28700).
T1 sequence: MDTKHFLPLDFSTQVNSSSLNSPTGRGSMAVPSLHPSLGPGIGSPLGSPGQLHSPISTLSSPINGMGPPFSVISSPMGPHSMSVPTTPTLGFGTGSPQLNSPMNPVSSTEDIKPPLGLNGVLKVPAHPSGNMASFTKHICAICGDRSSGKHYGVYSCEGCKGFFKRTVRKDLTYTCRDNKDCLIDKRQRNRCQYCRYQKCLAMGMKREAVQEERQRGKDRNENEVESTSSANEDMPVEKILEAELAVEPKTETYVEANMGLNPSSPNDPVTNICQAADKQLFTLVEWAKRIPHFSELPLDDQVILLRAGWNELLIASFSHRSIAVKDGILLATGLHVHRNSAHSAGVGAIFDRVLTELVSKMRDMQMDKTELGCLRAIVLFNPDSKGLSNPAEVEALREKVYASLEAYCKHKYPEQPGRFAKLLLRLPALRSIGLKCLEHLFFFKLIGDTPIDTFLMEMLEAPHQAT
In words: co-IP; immunoprecipitation with anti-RXRα antibody of exogenously expressed proteins as indicated, in differentiated 3T3-L1 cells; no methods section for the co-IP.

Results are given in words; binding and its absence hold for the method and conditions named. In cells and extracts the contact can be indirect. Some results given as binding are weak or reduced against the parent protein; the word gives no strength.

B1: ZBTB9 (protein, UniProt Q8CDC7 1-459)
chain: MDASTPLPPASSSPRCNPAPQTIHIEFPHHSSSLLESLNRHRLEGKFCDVSLLVQGRELRAHKAVLAAASPYFHDKLLLGDAPRLTLPNVIEADAFEGLLQLIYSGSLHLPLDALPAHLLVASGLQMWQVVDRCSEILRELETSGGISAGGRASSLTLISTTSSGGWCIRSSPFQNPVRSSASTENSVLPESPAGGEGSELEGMLQIQVKVEEEEEQGSAAPLFQTPQPERVSGGVSQACGSHPLPTPALPSKPSEDESSTVDPPAPPVQASQILYVNQENVECKEEIARGTKEKTKVLSGEDSEEKEELRYLLSSGGGESSGAGDPSWKPVDLHGNEILSGDGGPGGTGQAMHGPVKLGGTPPADGKCFACLCGKRFAVKPKRDRHIMLTFSLRPFGCGICNKRFKLKHHLTEHMKTHARALHACPHCGRRFRVQAFFLRHRDLCKGQGWPTYHWTYK
As for B1, the binding entry was “binds”.
